{"source": "patent US6905813B2", "about": "“Processing agent for silver halide color photosensitive material and processing method thereof” (Chugai Photo Chemical Co., Ltd., priority 2001, dated 2005)"}
{"assay": "Running Test 2 (Example 2): bleaching and fixing solution with additive, automatic developer QSS1201, large processing amount", "parameters": "key to Existence/non-existence of attached materials: −: No attachment of decomposed materials.; +: Very little amount of attachment of decomposed materials on the filter.; ++: Little amount of attachment of decomposed materials on the filter.; +++: Large amount of attachment of decomposed materials on the filter", "settings": "decomposed material on filter, naked eye; additive 0.35 mol/L (sodium sulfite 0.60); replenishment 35 ml/m2; 1500 L size pictures/day, 1 month"}
{"smiles": "CCN(CC)CCN", "note": "[N,N-diethylethylenediamine]", "Existence/non-existence of attached materials": "−"}
{"smiles": "NCCCCN", "note": "[1,4-diaminobutane]", "Existence/non-existence of attached materials": "+"}
{"smiles": "NCCNCCNCCN", "note": "[triethylenetetramine]", "Existence/non-existence of attached materials": "−"}
{"smiles": "CC(N)CCN", "note": "(stereo not drawn) [1,3-diaminobutane]", "Existence/non-existence of attached materials": "+"}
{"assay": "Running Test 2 (Example 2): bleaching and fixing solution with additive, automatic developer QSS1201, large processing amount", "parameters": "key to Existence/non-existence of attached materials: −: No attachment of decomposed materials.; +: Very little amount of attachment of decomposed materials on the filter.; ++: Little amount of attachment of decomposed materials on the filter.; +++: Large amount of attachment of decomposed materials on the filter", "settings": "pH of the running solution after the experiment"}
{"smiles": "CCN(CC)CCN", "note": "[N,N-diethylethylenediamine]", "pH": 7.30}
{"smiles": "NCCCCN", "note": "[1,4-diaminobutane]", "pH": 8.81}
{"smiles": "NCCNCCNCCN", "note": "[triethylenetetramine]", "pH": 7.20}
{"smiles": "CC(N)CCN", "note": "(stereo not drawn) [1,3-diaminobutane]", "pH": 8.70}
{"assay": "Running Test 2 (Example 2): bleaching and fixing solution with additive, automatic developer QSS1201, large processing amount", "parameters": "key to Existence/non-existence of attached materials: −: No attachment of decomposed materials.; +: Very little amount of attachment of decomposed materials on the filter.; ++: Little amount of attachment of decomposed materials on the filter.; +++: Large amount of attachment of decomposed materials on the filter", "settings": "visual concentration of yellow patch on control strip after processing, X-rite 310"}
{"smiles": "CCN(CC)CCN", "note": "[N,N-diethylethylenediamine]", "Y-Dmax concentration": 0.23}
{"smiles": "NCCCCN", "note": "[1,4-diaminobutane]", "Y-Dmax concentration": 0.38}
{"smiles": "NCCNCCNCCN", "note": "[triethylenetetramine]", "Y-Dmax concentration": 0.23}
{"smiles": "CC(N)CCN", "note": "(stereo not drawn) [1,3-diaminobutane]", "Y-Dmax concentration": 0.32}
